Experimental data reported in publication PMC11347664, “KHSRP ameliorates acute liver failure by regulating pre-mRNA splicing through its interaction with SF3B1” (Cell Death & Disease, 2024).
Results are given in words; binding and its absence hold for the method and conditions named. In cells and extracts the contact can be indirect. Here binding means that the protein was enriched with, or labelled near, the bait; the list need not be complete. Tags and fused reporters may be left off the sequences shown.

Sequences of proteins named here, by UniProt entry; tags and fusion partners are left off.
UniProt Q15393: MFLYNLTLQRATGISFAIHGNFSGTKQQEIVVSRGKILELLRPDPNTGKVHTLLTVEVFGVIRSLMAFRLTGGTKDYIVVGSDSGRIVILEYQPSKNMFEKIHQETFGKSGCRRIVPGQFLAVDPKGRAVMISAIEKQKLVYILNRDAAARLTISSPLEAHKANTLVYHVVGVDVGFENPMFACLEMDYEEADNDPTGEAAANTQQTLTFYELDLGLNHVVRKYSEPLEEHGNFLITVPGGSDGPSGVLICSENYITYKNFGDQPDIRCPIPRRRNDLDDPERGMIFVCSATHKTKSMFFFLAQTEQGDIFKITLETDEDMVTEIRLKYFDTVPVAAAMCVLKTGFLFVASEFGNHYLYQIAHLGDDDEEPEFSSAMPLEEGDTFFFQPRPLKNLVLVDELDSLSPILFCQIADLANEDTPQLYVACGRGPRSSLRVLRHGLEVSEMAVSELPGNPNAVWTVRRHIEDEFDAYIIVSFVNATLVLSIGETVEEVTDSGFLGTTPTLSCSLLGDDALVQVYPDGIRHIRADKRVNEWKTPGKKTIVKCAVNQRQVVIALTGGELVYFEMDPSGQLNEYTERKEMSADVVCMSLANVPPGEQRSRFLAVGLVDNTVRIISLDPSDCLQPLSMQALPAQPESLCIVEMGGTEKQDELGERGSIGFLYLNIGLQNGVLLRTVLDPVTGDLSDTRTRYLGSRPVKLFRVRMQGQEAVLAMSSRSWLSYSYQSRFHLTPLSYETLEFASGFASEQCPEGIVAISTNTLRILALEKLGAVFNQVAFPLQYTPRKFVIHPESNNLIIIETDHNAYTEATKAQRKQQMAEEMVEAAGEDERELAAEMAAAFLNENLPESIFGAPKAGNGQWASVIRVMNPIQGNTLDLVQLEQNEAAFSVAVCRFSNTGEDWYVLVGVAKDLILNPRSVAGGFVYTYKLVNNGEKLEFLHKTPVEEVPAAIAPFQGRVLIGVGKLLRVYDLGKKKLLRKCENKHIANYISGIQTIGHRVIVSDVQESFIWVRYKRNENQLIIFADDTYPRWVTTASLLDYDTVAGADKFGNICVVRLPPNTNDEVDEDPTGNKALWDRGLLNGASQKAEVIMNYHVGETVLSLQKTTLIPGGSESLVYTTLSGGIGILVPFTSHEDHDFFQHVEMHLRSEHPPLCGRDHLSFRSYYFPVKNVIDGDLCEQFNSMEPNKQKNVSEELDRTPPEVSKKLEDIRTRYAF
UniProt O75533: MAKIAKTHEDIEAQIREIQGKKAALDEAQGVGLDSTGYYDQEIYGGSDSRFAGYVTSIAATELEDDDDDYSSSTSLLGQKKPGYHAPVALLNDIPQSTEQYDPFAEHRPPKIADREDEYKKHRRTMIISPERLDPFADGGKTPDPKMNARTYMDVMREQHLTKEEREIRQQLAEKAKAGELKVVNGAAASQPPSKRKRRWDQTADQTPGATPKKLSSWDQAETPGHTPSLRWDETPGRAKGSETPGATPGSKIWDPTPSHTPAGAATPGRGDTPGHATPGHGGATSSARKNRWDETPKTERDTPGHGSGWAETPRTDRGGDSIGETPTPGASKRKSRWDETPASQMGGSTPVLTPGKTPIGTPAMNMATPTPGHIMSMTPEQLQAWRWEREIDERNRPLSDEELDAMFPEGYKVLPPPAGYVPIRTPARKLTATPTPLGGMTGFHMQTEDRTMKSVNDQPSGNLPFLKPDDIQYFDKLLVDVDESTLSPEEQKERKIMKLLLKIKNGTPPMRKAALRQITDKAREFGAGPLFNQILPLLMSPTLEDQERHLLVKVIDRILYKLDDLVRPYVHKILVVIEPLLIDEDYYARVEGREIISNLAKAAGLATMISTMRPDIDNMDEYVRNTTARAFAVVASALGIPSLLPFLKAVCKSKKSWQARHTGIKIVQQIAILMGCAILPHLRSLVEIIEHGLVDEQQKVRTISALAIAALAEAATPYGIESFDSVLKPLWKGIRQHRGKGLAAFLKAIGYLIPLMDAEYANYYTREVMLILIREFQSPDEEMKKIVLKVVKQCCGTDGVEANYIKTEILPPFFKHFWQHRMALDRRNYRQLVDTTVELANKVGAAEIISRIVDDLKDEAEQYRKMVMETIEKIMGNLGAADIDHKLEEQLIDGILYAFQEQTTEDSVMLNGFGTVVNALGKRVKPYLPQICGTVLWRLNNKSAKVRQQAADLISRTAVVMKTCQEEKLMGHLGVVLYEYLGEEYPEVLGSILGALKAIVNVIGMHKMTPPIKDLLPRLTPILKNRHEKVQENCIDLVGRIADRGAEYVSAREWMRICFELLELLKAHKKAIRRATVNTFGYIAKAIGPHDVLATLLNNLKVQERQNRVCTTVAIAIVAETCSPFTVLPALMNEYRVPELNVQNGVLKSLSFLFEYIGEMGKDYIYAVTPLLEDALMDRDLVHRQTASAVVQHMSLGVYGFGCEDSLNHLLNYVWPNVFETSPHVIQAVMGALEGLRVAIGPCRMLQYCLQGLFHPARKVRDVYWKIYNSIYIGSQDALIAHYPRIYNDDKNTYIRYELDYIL

Target: T1, Flag-KHSRP (pHAGE-KHSRP-FL, complete CDS of KHSRP) (UniProt Q92945)
T1 sequence: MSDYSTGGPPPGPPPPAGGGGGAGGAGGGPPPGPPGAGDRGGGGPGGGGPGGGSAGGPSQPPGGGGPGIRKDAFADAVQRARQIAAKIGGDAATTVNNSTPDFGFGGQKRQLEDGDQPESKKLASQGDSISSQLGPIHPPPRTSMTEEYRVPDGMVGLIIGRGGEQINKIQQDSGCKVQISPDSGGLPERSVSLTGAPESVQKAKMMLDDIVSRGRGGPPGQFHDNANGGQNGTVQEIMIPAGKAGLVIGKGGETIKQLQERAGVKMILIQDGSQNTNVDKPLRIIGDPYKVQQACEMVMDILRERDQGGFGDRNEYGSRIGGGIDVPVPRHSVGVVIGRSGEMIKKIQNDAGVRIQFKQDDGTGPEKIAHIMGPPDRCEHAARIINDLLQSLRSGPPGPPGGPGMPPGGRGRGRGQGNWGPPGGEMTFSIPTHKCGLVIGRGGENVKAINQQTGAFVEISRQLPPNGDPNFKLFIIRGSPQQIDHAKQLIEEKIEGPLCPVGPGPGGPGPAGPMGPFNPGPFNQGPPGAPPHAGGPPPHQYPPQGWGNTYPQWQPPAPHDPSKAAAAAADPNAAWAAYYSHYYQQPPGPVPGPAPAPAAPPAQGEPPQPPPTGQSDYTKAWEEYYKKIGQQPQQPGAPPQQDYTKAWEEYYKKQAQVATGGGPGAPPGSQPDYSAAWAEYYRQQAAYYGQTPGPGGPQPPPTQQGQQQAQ
Test: affinity purification with mass spectrometry; immunoprecipitation with anti-KHSRP (A302-021A, BETHYL) and A/G agarose beads from stable HL7702 cells expressing pHAGE-KHSRP-FL, overnight at 4 °C; candidates at least twofold enriched over IgG

binding | Substance
binds | SF3B3 (from UniProt Q15393 1-1217)
binds | splicing factor 3b subunit 1 (from UniProt O75533 1-1304)
